# PubChem BioAssay AID1259254 | NCATS, 2017
# Purpose: 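Finding genes that stop cells copying their DNA twice in one cycle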 (primary screen)
# System: human HCT116 colorectal cancer cells
# Knock-down reagent: single siRNA against human genes
# Time to read-out: 3 days
# Detection: 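Nuclei stained with Hoechst and imaged; cell-cycle phase assigned by DNA content; G2 share scaled per plate, non-targeting siRNA 0%, GMNN siRNA 100%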
# Direction: G2 robust z-score and G2 cells, % of GMNN control: higher = more G2 cells, more excess DNA replication; raw share of cells in G2: higher = larger share of cells with G2 DNA content
# Rule for the call: 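An siRNA counts as active if its G2 robust z-score lies at least 5 MADs above the screen median; here such calls match roughly 38% of GMNN control or more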
# In all, the deposit lists about 59,000 reagents; shown is an unselected part. Of all reagents, about 1,550 (2.6%) got an active call. 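G2 share is only a proxy for re-replication; each gene was hit by three separate siRNAs, and active genes were retested.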 Raw values are not corrected between plates. Entries without a mark were called inactive. Reagents against one gene are numbered here. The record does not give: the amount of reagent.
gene knocked down,reagent no.,G2 robust z-score,"G2 cells, % of GMNN control",raw share of cells in G2 (%)
RHBDF1,1,-1.14,-5.07,2.37
RHBDF1,2,1.04,10.3,9.21
RHBDF1,3,-0.905,-3.4,1.8
PGBD4,1,-0.584,-1.14,3.19
PGBD4,2,-0.603,-1.27,2.53
PGBD4,3,0.304,5.1,4.38
SMARCE1,1,3.33,26.4,14.6
SMARCE1,2,4.75,36.4,17
SMARCE1,3,0.208,4.43,5.42
TUBBP5,1,-0.317,0.739,3.92
TUBBP5,2,2.85,23.1,11.6
TUBBP5,3,-0.604,-1.28,2.77
LINC02875,1,0.208,4.43,6.53
LINC02875,2,-0.191,1.62,4.33
LINC02875,3,-0.58,-1.11,2.92
SAAL1,1,0.917,9.42,10
SAAL1,2,-0.432,-0.0716,4.94
SAAL1,3,0.00981,3.04,5.63
ANKRD17,1,5.11 (active),38.9,19.1
ANKRD17,2,0.0998,3.67,5.53
ANKRD17,3,-1.13,-5,1.55
PPIAP19,1,0.526,6.67,6.31
PPIAP19,2,-0.224,1.39,5.23
PPIAP19,3,3.65,28.7,13.6
PPP6C,1,-0.241,1.27,5.21
PPP6C,2,-0.407,0.105,4.33
PPP6C,3,5.35 (active),40.6,15.7
RETREG2,1,-0.0456,2.65,3.4
RETREG2,2,0.823,8.76,8.39
RETREG2,3,-0.724,-2.13,3.66
CREM,1,-0.715,-2.06,4.24
CREM,2,5.57 (active),42.1,20
CREM,3,0.17,4.16,5.53
ICAM4,1,-0.616,-1.37,5.16
ICAM4,2,-0.639,-1.53,4.49
ICAM4,3,-0.371,0.354,4.33
ASH1L,1,0.425,5.96,9.04
ASH1L,2,-0.444,-0.157,4.38
ASH1L,3,0.771,8.39,7.83
SH3GL1,1,-0.809,-2.72,3.82
SH3GL1,2,2.58,21.1,12.6
SH3GL1,3,0.238,4.64,5.03
USPL1,1,0.837,8.86,6.7
USPL1,2,-1.02,-4.22,4.81
USPL1,3,3.69,28.9,18.3
VWCE,1,0.451,6.14,5.8
VWCE,2,-0.421,0.00197,3.13
VWCE,3,-0.639,-1.53,2.71
POU3F3,1,-0.821,-2.81,2.12
POU3F3,2,0.367,5.55,5.09
POU3F3,3,0.525,6.66,5.86
FMR1,1,-0.137,2,5.96
FMR1,2,2.17,18.3,12.2
FMR1,3,-0.456,-0.243,3.57
DNAAF6,1,1.68,14.8,9.76
DNAAF6,2,0.277,4.92,4.66
DNAAF6,3,1.39,12.7,7.19
CPPED1,1,0.146,4,6.06
CPPED1,2,2.02,17.2,11.3
CPPED1,3,0.448,6.12,5.09
RRAS,1,2.07,17.6,11
RRAS,2,3.3,26.2,12.9
RRAS,3,-0.234,1.32,5.18
FOXD4L3,1,0.981,9.87,10.2
FOXD4L3,2,-1.11,-4.86,3.06
FOXD4L3,3,-0.273,1.04,4.67
SMC5,1,-0.76,-2.38,3.05
SMC5,2,0.486,6.38,8.93
SMC5,3,-1.03,-4.3,2.72

Part of the list above, limited to “G2 cells, % of GMNN control”.
ANKRD17 #2	3.67
ANKRD17 #3	-5
PPIAP19 #1	6.67
PPIAP19 #2	1.39
